Laboratory results as given in patent publication US20210121406A1.
No constants are given. Whether binding was seen depends on the method and setting. Some results given as binding are weak or reduced against the parent protein; the word gives no strength.

Chains of the proteins cited; added tags and fusions are not shown. Lines headed by an entry give the natural chain unless they say otherwise; changes in a name come on top. A line that says so, or that is headed by a name, gives the form on record, which may keep a tag or linker.
cyno TSLP (A0A7N9CAT7, form named): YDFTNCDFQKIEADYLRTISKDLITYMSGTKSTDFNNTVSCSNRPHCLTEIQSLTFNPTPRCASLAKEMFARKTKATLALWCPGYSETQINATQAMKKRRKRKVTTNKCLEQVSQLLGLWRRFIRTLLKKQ

Target: Fab1
Experiment: KinExA, solution phase: cyno TSLP titrated into fixed Fab1 (1000 pM filled diamonds, 40 pM open squares); free Fab1 captured on hu TSLP-coated beads

With “cyno TSLP (from UniProt A0A7N9CAT7 29-159) (ligand)” the binding was “binds”.
